Reference: PMC7083937, “The ribosome-associated complex RAC serves in a relay that directs nascent chains to Ssb” (Nature Communications, 2020)
Results are given in words; binding and its absence hold for the method and conditions named. In cells and extracts the contact can be indirect. Binding can be weak; no strength is given.

By UniProt entry, the sequences of proteins in these tests, tags left out. Where a name states a change or a piece, a line headed by the entry shows the natural chain unless it says otherwise.
UniProt P32527: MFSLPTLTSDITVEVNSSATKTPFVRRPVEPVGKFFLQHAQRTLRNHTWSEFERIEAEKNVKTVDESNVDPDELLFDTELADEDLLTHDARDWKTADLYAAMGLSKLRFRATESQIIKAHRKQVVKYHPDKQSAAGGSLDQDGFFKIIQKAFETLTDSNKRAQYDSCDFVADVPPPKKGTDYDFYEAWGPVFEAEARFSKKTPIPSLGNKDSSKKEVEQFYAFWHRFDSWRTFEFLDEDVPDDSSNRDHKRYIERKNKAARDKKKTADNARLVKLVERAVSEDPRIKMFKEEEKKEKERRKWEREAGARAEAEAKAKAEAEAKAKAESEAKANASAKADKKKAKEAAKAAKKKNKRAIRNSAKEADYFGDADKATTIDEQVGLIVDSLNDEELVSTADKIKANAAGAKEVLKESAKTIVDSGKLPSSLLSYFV

Key:
[1] = target: T1, nascent Pgk1-100 (100 residues) (S. cerevisiae) (UniProt P00560); experiment: cross-linking; as a4, ribosome-free extract from Δzuo1 expressing Zuo1-ΔN49 (Ssb, Zuo1-ΔN49, Ssz1) added
T1 sequence (chain, [35S]-methionine labelled): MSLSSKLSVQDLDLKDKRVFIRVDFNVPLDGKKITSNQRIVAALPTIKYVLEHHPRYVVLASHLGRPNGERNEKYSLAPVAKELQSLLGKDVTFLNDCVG

[2] = target: T1, nascent Pgk1-100 (100 residues) (S. cerevisiae); experiment: cross-linking; as a9, ribosome-free extract from Δssb1Δssb2 RACmut-ΔN8 (Zuo1-ΔN8, Ssz1mut) added
[3] = target: T1, nascent Pgk1-100 (100 residues) (S. cerevisiae); experiment: cross-linking; as a10; RNCs isolated, LP-peptide or NR-peptide added to the resuspended RNCs before the cross-linking reaction; nascent chain with Ssz1 or Zuo1-ΔN8
[4] = target: T1, nascent Pgk1-100 (100 residues) (S. cerevisiae); experiment: cross-linking; as a9, ribosome-free extract from Δssb1Δssb2 RAC-ΔN8 (Zuo1-ΔN8, Ssz1) added

Row | binding [1] | binding [2] | binding [3] | binding [4] | Substance
1 | binds | – | – | – | Zuo1-ΔN49 (N-terminally truncated Zuo1) (from UniProt P32527) (domain or fragment)
2 | – | binds | binds | binds | Zuo1-ΔN8 (Zuo1 with a deletion of the LP-motif) (from UniProt P32527) (domain or fragment)
